Experimental data published in the supplement of paper PMC10849652.
The list shows a part of the results.

The chains behind the UniProt entries cited, without tags or fusion partners. Where a name states a change or a piece, a line headed by the entry shows the natural chain unless it says otherwise.
UniProt Q96FV2: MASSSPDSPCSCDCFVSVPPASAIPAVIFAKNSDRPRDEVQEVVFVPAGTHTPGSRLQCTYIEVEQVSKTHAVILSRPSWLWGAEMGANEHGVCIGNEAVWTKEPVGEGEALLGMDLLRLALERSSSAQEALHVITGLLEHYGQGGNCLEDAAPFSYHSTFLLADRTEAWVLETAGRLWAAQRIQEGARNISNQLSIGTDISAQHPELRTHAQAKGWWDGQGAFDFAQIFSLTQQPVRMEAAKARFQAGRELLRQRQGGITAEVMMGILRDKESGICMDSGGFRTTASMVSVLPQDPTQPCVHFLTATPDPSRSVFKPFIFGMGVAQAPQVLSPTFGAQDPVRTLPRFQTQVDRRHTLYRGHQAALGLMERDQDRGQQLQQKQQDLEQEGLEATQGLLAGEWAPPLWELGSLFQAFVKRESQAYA
UniProt A6ZKI3: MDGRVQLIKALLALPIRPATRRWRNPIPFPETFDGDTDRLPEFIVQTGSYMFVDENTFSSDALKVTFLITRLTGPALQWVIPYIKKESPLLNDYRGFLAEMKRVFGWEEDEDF
UniProt Q9HCY8: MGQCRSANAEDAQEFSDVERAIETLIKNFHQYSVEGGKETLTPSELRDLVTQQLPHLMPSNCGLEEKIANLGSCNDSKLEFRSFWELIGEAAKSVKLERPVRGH
UniProt Q8N488: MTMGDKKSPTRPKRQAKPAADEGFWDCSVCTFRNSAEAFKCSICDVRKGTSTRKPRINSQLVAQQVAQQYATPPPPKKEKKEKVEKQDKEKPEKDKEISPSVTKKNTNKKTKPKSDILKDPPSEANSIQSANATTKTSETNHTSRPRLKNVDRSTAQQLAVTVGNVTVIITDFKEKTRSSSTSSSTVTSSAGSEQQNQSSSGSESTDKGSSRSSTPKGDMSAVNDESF
UniProt Q8WTV0: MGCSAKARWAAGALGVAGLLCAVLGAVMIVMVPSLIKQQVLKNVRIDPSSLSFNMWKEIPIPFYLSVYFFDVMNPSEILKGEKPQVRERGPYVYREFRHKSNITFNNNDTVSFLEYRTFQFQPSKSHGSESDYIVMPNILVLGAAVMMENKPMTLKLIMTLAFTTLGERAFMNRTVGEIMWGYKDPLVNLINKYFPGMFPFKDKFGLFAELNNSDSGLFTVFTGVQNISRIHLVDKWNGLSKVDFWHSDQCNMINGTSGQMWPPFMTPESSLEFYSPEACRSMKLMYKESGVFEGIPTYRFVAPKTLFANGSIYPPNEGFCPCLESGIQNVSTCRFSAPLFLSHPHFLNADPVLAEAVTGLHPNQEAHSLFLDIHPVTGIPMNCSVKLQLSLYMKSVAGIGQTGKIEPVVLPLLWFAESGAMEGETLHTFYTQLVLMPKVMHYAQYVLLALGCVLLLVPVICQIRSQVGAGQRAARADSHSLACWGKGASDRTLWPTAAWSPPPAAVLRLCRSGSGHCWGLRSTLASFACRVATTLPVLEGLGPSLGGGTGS
UniProt Q92503: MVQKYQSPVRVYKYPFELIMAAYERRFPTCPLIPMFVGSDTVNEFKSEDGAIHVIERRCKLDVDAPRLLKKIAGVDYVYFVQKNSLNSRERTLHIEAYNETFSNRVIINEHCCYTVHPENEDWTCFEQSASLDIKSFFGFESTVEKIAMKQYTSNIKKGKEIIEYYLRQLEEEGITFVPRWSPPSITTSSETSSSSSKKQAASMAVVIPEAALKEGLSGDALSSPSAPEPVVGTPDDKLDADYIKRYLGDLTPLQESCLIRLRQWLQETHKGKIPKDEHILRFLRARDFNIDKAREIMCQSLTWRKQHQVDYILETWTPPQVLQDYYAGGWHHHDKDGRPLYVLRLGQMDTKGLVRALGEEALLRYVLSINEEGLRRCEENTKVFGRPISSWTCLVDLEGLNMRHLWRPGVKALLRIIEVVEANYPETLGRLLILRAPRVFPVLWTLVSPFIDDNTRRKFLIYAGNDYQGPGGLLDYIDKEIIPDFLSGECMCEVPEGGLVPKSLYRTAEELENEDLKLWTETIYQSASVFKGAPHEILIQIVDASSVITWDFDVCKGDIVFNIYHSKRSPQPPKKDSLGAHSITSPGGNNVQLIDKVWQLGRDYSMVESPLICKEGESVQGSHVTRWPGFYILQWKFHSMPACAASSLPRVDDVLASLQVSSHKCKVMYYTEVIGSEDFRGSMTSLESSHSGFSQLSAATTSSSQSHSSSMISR
UniProt Q9NRG7: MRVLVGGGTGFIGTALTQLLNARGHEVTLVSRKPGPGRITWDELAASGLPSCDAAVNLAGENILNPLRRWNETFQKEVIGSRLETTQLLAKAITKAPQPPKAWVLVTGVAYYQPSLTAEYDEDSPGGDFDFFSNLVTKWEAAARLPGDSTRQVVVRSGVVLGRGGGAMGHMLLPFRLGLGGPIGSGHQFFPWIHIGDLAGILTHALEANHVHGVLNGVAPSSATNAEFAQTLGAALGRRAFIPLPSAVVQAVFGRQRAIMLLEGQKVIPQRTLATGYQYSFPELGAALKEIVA
UniProt Q9UBE0: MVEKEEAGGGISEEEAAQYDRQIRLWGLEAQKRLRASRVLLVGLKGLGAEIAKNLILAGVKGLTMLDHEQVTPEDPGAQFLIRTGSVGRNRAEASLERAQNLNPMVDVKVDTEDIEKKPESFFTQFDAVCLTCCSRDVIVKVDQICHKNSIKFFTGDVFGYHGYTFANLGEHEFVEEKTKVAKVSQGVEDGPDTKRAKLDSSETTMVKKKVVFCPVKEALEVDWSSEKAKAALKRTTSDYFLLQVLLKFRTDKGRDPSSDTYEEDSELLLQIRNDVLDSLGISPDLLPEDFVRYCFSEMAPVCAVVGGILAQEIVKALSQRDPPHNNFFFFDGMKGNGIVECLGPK
UniProt P53992: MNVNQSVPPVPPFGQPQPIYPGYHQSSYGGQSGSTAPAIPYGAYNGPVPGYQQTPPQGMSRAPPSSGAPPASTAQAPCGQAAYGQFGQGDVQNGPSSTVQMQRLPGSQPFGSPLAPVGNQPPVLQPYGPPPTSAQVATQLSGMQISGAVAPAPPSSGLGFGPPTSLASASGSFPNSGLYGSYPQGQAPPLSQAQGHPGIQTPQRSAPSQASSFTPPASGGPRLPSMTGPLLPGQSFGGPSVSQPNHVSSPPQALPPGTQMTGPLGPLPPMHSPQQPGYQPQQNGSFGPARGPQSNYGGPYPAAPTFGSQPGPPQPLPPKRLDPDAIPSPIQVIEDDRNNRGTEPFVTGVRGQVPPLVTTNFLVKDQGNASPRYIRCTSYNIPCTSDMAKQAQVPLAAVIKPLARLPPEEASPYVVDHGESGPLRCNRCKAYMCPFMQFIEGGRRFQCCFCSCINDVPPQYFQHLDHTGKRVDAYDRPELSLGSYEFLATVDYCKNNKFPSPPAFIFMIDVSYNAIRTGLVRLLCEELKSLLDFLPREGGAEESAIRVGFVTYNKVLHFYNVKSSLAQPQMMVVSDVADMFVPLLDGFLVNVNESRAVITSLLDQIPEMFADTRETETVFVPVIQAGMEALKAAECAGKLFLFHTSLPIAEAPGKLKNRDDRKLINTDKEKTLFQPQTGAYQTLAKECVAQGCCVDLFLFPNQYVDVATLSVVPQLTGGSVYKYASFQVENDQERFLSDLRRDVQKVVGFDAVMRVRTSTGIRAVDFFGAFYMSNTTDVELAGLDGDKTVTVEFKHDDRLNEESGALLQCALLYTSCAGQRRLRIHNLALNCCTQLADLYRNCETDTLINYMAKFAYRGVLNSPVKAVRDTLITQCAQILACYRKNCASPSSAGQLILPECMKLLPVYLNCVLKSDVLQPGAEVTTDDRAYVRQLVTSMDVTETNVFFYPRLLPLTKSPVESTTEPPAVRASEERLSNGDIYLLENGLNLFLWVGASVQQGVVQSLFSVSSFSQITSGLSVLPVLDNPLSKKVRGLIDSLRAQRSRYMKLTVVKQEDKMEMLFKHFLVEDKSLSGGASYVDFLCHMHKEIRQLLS
UniProt Q969E2: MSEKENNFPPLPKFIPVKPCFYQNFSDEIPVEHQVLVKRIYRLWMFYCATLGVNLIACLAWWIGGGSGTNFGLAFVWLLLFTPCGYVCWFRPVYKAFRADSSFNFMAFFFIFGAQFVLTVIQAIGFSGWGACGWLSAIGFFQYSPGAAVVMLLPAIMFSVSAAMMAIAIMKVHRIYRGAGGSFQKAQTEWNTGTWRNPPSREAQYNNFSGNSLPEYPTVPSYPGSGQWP
UniProt Q96KG9: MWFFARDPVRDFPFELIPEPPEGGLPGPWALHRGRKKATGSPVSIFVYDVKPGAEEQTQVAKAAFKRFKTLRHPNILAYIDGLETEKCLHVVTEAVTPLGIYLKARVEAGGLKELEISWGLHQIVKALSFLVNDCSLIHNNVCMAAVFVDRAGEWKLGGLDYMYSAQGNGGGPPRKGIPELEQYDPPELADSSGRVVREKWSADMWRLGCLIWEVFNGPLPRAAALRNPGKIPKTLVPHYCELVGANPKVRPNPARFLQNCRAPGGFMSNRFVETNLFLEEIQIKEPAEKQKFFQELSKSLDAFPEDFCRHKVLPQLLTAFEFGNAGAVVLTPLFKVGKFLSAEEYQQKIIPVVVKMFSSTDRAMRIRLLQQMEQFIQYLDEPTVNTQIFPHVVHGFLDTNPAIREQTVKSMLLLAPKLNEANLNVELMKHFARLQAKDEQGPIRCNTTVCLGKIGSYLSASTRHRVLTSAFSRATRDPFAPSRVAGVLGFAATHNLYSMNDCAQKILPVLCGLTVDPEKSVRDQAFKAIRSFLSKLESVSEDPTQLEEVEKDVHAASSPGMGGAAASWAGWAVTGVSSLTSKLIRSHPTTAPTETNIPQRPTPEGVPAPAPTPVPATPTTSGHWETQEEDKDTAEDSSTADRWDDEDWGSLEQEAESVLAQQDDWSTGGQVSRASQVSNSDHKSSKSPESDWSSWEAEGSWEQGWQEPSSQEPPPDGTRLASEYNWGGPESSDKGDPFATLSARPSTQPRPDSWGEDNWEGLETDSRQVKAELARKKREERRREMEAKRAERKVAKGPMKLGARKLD
UniProt Q86SQ7: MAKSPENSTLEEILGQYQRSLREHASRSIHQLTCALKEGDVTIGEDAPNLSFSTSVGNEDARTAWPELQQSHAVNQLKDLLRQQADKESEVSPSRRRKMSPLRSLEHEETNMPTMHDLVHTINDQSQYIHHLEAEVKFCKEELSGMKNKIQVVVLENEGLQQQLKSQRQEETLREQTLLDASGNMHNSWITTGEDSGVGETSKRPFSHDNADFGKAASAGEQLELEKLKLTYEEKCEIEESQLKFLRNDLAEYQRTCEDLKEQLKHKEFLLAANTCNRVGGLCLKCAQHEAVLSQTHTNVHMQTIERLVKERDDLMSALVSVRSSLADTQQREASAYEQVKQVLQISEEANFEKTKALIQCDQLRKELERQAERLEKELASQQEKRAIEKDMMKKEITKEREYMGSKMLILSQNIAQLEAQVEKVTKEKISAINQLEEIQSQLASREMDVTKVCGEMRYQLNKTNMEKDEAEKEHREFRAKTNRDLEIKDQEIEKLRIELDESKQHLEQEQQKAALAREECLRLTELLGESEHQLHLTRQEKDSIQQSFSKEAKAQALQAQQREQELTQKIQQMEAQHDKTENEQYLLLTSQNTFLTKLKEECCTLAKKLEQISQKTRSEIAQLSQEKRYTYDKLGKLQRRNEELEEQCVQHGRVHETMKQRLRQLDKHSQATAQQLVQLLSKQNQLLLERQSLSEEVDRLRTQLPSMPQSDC
UniProt Q15424: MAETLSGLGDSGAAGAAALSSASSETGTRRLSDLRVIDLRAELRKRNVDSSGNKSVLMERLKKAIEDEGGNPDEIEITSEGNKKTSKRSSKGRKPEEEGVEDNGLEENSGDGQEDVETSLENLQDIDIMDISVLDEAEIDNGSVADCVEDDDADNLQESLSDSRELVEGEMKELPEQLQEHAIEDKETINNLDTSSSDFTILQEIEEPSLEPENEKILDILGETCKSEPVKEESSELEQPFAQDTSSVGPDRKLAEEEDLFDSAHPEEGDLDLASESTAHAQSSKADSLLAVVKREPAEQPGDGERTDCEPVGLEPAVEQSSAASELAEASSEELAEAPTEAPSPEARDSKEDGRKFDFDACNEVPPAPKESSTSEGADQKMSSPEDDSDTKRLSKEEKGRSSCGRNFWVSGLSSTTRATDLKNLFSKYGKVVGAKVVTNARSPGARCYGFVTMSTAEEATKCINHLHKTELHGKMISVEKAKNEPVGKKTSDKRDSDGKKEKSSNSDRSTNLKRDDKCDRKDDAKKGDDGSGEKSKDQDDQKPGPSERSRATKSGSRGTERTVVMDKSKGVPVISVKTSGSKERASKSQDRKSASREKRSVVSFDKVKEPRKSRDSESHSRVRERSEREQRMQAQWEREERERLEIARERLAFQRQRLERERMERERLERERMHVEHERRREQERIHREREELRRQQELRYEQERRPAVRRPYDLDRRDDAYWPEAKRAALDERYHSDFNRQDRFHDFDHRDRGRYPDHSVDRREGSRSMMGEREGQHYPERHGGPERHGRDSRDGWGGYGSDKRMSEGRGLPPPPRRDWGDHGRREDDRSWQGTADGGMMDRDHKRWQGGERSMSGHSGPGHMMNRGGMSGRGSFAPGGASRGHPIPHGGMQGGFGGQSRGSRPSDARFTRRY

compound: c1cn2cc(-c3ccc4cn[nH]c4c3)nc(Nc3ccc(N4CCOCC4)cc3)c2n1 [entospletinib]; test: log2 fold change, soluble protein after heating vs DMSO (PISA); higher = thermal stabilisation; K562 cells, 10 uM, 30 min; active = over 0.2 and 3.5 SD of the protein, either way, in both replicates (recomputed)
Outline: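 Quantification of soluble protein used TMTpro 16plex LC-MS/MS, with channel sums equalised. Samples were the supernatant after 21,000xg for 90 min of pooled aliquots from K562 cells (2×10^6 cells/mL) treated with 10 μM compound for 30 min, heated for 3 min over 48°C-58°C, and extracted in PBS with 0.5% NP-40 at 4°C. Values, from duplicates, describe thermal stability against control samples on a log2 fold-change scale.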

Target | log2 fold change
SARAF (UniProt Q96BY9) | inactive: 0.055
SCRN2 (UniProt Q96FV2) | inactive: -0.069
SDE2 (UniProt Q6IQ49) | inactive: 0.028
SBSN (UniProt Q6UWP8) | inactive: -0.052
RRP15 (UniProt Q9Y3B9) | inactive: -0.036
SDHAF3 (UniProt Q9NRP4) | inactive: 0.056
RTL8C (UniProt A6ZKI3) | inactive: 0.005
S100A14 (UniProt Q9HCY8) | inactive: -0.061
SC5D (UniProt O75845) | inactive: -0.112
RYBP (UniProt Q8N488) | inactive: -0.029
SCARB1 isoform 2 (UniProt Q8WTV0) | inactive: 0.007
SEC24D isoform 2 (UniProt O94855) | inactive: -0.015
SEC14L1 isoform 2 (UniProt Q92503) | inactive: 0.172
SDR39U1 (UniProt Q9NRG7) | inactive: 0.611
SCNM1 (UniProt Q9BWG6) | inactive: -0.12
SAE1 (UniProt Q9UBE0) | inactive: 0.026
SEC24C (UniProt P53992) | inactive: 0
SAMHD1 (UniProt Q9Y3Z3) | inactive: -0.108
SCAMP4 (UniProt Q969E2) | inactive: 0.041
SCYL1 (UniProt Q96KG9) | inactive: -0.003
SDCCAG8 (UniProt Q86SQ7) | inactive: 0.054
SAFB isoform 3 (UniProt Q15424) | inactive: 0.129
SBNO1 (UniProt A3KN83) | inactive: 0.006

Some of the entries above, set out differently:

| Target | log2 fold change |
| --- | --- |
| SDR39U1 (UniProt Q9NRG7) | inactive: 0.611 |
| SDCCAG8 (UniProt Q86SQ7) | inactive: 0.054 |
